Measured values reported in publication PMC11110260.
These are yes or no findings as the source states them, for the method shown. In cells and extracts the contact can be indirect. Binding calls can cover weak binding; strength is not graded here.

Amino acid sequences for entries named in this document (tags omitted). A change or cut given only in a name is not applied to a line headed by its entry.
UniProt Q92466: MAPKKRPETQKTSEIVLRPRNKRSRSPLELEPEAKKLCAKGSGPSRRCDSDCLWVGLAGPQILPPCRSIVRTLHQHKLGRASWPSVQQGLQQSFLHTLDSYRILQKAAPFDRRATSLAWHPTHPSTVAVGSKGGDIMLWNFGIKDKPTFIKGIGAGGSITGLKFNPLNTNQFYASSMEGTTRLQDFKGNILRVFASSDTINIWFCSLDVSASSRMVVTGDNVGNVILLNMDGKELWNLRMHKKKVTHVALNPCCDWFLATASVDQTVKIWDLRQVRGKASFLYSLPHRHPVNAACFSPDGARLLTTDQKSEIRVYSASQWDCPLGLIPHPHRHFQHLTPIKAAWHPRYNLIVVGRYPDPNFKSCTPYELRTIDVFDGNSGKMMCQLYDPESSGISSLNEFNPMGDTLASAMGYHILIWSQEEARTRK
UniProt Q04206: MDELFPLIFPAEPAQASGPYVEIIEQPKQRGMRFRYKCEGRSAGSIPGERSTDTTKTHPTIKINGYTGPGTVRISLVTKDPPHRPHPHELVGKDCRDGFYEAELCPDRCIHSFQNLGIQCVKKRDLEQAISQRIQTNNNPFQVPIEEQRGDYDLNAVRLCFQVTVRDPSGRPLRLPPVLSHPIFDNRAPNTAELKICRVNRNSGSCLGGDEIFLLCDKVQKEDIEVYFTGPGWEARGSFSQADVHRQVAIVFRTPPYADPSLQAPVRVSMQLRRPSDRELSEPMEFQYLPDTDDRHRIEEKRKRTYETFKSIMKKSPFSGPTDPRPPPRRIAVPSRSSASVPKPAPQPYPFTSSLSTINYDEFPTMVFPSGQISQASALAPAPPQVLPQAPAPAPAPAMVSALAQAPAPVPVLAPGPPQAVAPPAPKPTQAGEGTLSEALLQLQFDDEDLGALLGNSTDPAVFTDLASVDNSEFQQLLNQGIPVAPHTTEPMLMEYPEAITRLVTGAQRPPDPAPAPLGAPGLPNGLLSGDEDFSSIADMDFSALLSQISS

Target: DDB2^PCNA− (mutant form of DDB2 unable to interact with PCNA), His-tagged (UniProt Q92466)
Experiment: pull-down; lysates of HEK293 stable clones 7 d after UV-C irradiation (hypotonic buffer: 10 mM Tris-HCl pH 7.4, 2.5 mM MgCl2, 0.5% NP-40, 10 mM imidazole; sonicated), incubated with Ni-NTA resin overnight at 4 °C; His-tagged DDB2 held on the resin; washed with 50 mM Tris-HCl pH 7.4; Western blot with anti-NF-kB p65 and anti-DDB2

Q: “NF-kB (detected with anti-NF-kB p65) (from UniProt Q04206 1-551)” was tested. Which binding did it give?
A: binds
